No constants are given. Whether binding was seen depends on the method and setting. Binding seen in cells or lysates may run through a third protein. Binding can be weak; no strength is given. Tags and fused reporters may be left off the sequences shown.

For assay [1], the target named is T1, AUP1-GST fusion protein (residues 1-410) (human) (UniProt Q9Y679).
T1 sequence: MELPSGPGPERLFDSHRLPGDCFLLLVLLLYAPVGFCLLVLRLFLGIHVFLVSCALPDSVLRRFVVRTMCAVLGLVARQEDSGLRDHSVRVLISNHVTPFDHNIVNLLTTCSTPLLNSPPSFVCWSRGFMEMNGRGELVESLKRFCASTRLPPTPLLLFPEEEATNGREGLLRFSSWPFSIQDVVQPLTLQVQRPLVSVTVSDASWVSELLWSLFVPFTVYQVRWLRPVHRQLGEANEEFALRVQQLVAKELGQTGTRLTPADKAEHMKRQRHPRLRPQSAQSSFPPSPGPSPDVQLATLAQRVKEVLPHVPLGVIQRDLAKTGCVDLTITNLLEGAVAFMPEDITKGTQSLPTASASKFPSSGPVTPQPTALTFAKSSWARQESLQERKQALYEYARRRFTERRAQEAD
The experiment in a line: pull-down; GST fusion protein bound to glutathione sepharose beads pulls down S-tagged protein from bacterial lysate; Western blot with HRP-conjugated anti-S-tag antibody; beads alone and GST-coated beads as controls; only the target purified. For orientation: In western blotting, separated proteins are transferred to a membrane and probed.

Assay [2] addresses T2, GST-SIAH1 truncation, residues 91-157 (human) (UniProt Q8IUQ4).
T2 sequence: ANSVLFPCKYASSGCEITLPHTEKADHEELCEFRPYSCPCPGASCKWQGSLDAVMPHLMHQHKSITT
The description is as above.

“S-tagged MOR-IL2 (residues 166-187, pET30a) (human) (domain or fragment)”: the binding result in assay [1] and in assay [2] was “binds” in each case.

For the origin of these results see paper PMC3695902.
